Experimental data published in doi:10.1101/619510.
Results are given in words; binding and its absence hold for the method and conditions named. In cells and extracts the contact can be indirect. Some entries that bind do so weakly or less than the wild type. For some assays here: Tags and fused reporters may be left off the sequences shown. One block for each molecule: values may come before it.

The chains behind the UniProt entries cited, without tags or fusion partners. Residues count along the entry.
UniProt Q03135: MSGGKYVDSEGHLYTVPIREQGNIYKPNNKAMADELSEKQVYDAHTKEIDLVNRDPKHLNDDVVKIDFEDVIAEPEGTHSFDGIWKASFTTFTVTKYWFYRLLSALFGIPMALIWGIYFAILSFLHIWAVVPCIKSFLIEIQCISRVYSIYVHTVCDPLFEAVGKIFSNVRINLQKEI
UniProt Q8CBF3, residues 18-984: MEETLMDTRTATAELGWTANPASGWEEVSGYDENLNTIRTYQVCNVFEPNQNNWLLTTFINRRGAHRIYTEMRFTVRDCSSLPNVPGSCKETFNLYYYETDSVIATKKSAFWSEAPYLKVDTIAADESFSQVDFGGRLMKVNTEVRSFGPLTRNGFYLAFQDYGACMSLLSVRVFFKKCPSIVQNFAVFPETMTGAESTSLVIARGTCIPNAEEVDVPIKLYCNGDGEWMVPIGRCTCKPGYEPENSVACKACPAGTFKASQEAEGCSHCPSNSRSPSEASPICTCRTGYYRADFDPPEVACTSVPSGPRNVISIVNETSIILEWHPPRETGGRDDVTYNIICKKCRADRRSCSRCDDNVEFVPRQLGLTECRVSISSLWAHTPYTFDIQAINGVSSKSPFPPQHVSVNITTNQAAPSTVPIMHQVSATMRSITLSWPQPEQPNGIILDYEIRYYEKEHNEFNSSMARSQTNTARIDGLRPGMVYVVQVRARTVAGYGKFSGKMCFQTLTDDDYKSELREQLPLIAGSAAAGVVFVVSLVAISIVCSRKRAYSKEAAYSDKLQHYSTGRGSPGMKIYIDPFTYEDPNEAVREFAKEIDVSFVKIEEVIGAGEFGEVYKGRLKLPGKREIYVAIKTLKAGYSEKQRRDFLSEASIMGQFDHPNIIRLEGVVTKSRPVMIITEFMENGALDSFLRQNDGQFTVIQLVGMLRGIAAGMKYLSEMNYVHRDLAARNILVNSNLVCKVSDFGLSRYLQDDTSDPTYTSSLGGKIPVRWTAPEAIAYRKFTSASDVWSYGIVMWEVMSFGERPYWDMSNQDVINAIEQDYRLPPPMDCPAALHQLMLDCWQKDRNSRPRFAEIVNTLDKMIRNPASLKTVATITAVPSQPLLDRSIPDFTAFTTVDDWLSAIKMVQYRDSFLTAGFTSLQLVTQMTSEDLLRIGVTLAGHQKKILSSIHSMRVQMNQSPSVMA

Experiments:
[1] = target: WT-Cav-1-CFP (caveolin-1, C-terminal CFP-tagged) (UniProt Q03135); assay: FRET or BRET
[2] = target: WT-EphB1-YFP (mouse EphB1, C-terminal YFP-tagged) (mouse) (UniProt Q8CBF3); assay: FRET or BRET

- binding [1]: binds
Molecule: WT-EphB1-YFP (mouse EphB1, C-terminal YFP-tagged) (from UniProt Q8CBF3 18-984) (receptor)

- binding [2]: binds
B1: Mouse recombinant EphrinB1-Fc chimera (Fc fusion, UniProt P52795 25-236)
chain: ATPLAKNLEPVSWSSLNPKFLSGKGLVIYPKIGDKLDIICPRAEAGRPYEYYKLYLVRPEQAAACSTVLDPNVLVTCNKPHQEIRFTIKFQEFSPNYMGLEFKKYHDYYITSTSNGSLEGLENREGGVCRTRTMKIVMKVGQDPNAVTPEQLTTSRPSKESDNTVKTATQAPGRGSQGDSDGKHETVNQEEKSGPGAGGGGSGDSDSFFNSK
